Conditions in all cases: 10 µM; pre-incubation: 30-90 min
In assay [1] the test system is Danio rerio larvae (5 dpf, TLF). Description: OMR-Perf (SSMD vs DMSO vehicle); higher = higher than vehicle (e.g. higher dark-flash O-bend response probability, or better optomotor performance).
Assay [2] has the same test system. In words: Prob-Test (SSMD vs DMSO vehicle); higher = higher than vehicle (e.g. higher dark-flash O-bend response probability, or better optomotor performance).
For assay [3] the test system is unchanged. In words: Prob-Naive (SSMD vs DMSO vehicle); higher = higher than vehicle (e.g. higher dark-flash O-bend response probability, or better optomotor performance).
Assay [4] shares this test system. In words: Prob-Train (SSMD vs DMSO vehicle); higher = higher than vehicle (e.g. higher dark-flash O-bend response probability, or better optomotor performance).

The other results are listed elsewhere or left out. Repeats in this data set agree poorly, so a single value says little.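 Free-swimming zebrafish larvae were scored for O-bend response probability to dark flashes (naive: first five; training: remaining flashes of four 60-flash blocks; test: later 60-flash block) and for turning toward alternating leftward/rightward LED motion (OMR). Six treated larvae were compared with sixty 0.1% DMSO controls; |SSMD|≥2 defined a hit.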

`CCCC(CCC)C(=O)O.CCCC(CCC)C(=O)[O-].[Na+]` [Divalproex Sodium] registered an OMR-Perf in assay [1] of 0.181. Also, the Prob-Test in assay [2] is 0.228. Moreover, the Prob-Naive in assay [3] is -0.364. Also, the Prob-Train in assay [4] was -0.311.

For `OCCn1cc(-c2ccc3c(c2)CC/C3=N\O)c(-c2ccncc2)n1`, the OMR-Perf in assay [1] stood at 0.0626. This molecule displayed a Prob-Test in assay [2] of -0.345. The same molecule had a Prob-Naive in assay [3] of -0.311. The molecule also came in with a Prob-Train in assay [4] of -0.458.

For the molecule `CCOc1cc([C@@H](CS(C)(=O)=O)N2C(=O)c3cccc(NC(C)=O)c3C2=O)ccc1OC`, the OMR-Perf in assay [1] stood at 0.302. Further, the Prob-Test in assay [2] worked out at 0.634. The molecule also registered a Prob-Naive in assay [3] of -0.577. This molecule came in with a Prob-Train in assay [4] of -0.0143.

In the case of `O=C1C[C@@H](c2ccc(O)cc2)Oc2cc(O)cc(O)c21` [Naringenin], the OMR-Perf in assay [1] turned out to be 0.423. The Prob-Test in assay [2] was -0.493. In assay [3], this molecule came in with a Prob-Naive of -0.112. The molecule also returned a Prob-Train in assay [4] of -0.202.

As for `O=c1[nH]cc(F)c(=O)[nH]1` [Fluorouracil (5-Fluoracil, 5-FU)], in assay [1], the OMR-Perf is -0.71. Besides, the Prob-Test in assay [2] was -0.244. Moreover, in assay [3], the Prob-Naive came to 0.454. This molecule yielded a Prob-Train in assay [4] of 0.28.

Take `Cc1ccccc1C(=O)Nc1ccc(C(=O)N2CCCC(O)c3cc(Cl)ccc32)c(C)c1` (centres undefined) [Tolvaptan]: the OMR-Perf in assay [1] is 0.89. In assay [2], this molecule returned a Prob-Test of 0.433. In assay [3], this molecule had a Prob-Naive of 0.0551. Further, the Prob-Train in assay [4] is 0.366.

`O=C1c2c(O)cccc2[C@H]([C@@H]2O[C@H](CO)[C@H](O)[C@H](O)[C@H]2O)c2cc(CO)cc(O)c21` [Aloin] gave an OMR-Perf in assay [1] of 0.555. This molecule showed a Prob-Test in assay [2] of 0.232. In assay [3], the Prob-Naive was -0.247. This molecule also yielded a Prob-Train in assay [4] of 0.597.

`Cn1cc(-c2[nH]c3cc(NC(=O)[C@H](N)C4CCCCC4)cc4c3c2C=NNC4=O)cn1` came in with an OMR-Perf in assay [1] of -0.137. Moreover, the Prob-Test in assay [2] is -0.543. Further, the Prob-Naive in assay [3] was 0.538. This molecule came in with a Prob-Train in assay [4] of -0.0832.

For `O=c1oc2cc(O)ccc2s1` [Tioxolone], the OMR-Perf in assay [1] was -0.978. The molecule further gave a Prob-Test in assay [2] of -1.79. Also, the Prob-Naive in assay [3] is -0.201. In addition, in assay [4], the Prob-Train is -1.49.

`CCOC(=O)Nc1cc(-c2ccc(C)c(NS(C)(=O)=O)c2)nn2c(C)nnc12` [Bromosporine] showed an OMR-Perf in assay [1] of -0.402. In assay [2], this molecule gave a Prob-Test of 0.0249. This molecule also displayed a Prob-Naive in assay [3] of -0.356. Moreover, the Prob-Train in assay [4] was -0.288.

As for `CCS(=O)(=O)CCn1c([N+](=O)[O-])cnc1C` [Tinidazole], in assay [1], the OMR-Perf worked out at 0.213. The molecule further had a Prob-Test in assay [2] of 0.0018. The same molecule returned a Prob-Naive in assay [3] of 0.402. In assay [4], the Prob-Train turned out to be 0.132.

Molecule `CC(COc1ccccc1)N(CCCl)Cc1ccccc1.Cl` (centres undefined) [Phenoxybenzamine HCl] returned an OMR-Perf in assay [1] of -0.107. Besides, in assay [2], the Prob-Test is -0.553. This molecule had a Prob-Naive in assay [3] of -0.427. The same molecule came in with a Prob-Train in assay [4] of 0.157.

In turn, `CCN(CC)CC#CCOC(=O)C(O)(c1ccccc1)C1CCCCC1.Cl` (centres undefined) [Oxybutynin chloride] came in with an OMR-Perf in assay [1] of -0.0816. In addition, in assay [2], the Prob-Test is -0.96. Moreover, the Prob-Naive in assay [3] was -0.431. In assay [4], this molecule had a Prob-Train of -1.7.

In turn, `Cc1nnc(C(C)C)n1C1CC2CCC(C1)N2CC[C@H](NC(=O)C1CCC(F)(F)CC1)c1ccccc1` (some centres undefined) [Maraviroc] came in with an OMR-Perf in assay [1] of 0.557. Besides, the Prob-Test in assay [2] was -0.125. The molecule further returned a Prob-Naive in assay [3] of 0.0184. This molecule showed a Prob-Train in assay [4] of -0.264.

In the case of `Nc1nccc2c1ncn2[C@@H]1C=C(CO)[C@@H](O)[C@@H]1O` [3-Deazaneplanocin A (DZNeP)], in assay [1], the OMR-Perf came to 0.667. The Prob-Test in assay [2] was 0.106. The molecule also yielded a Prob-Naive in assay [3] of -0.18. In assay [4], this molecule returned a Prob-Train of 0.334.

`CCCCc1ncc(/C=C(\Cc2cccs2)C(=O)O)n1Cc1ccc(C(=O)O)cc1.CS(=O)(=O)O` [Eprosartan Mesylate] displayed an OMR-Perf in assay [1] of -0.0987. Also, the Prob-Test in assay [2] came out at 0.316. Further, the Prob-Naive in assay [3] was -0.284. For the same molecule, the Prob-Train in assay [4] is -0.0578.

`NCCCC[C@H](N[C@@H](CCc1ccccc1)C(=O)O)C(=O)N1CCC[C@H]1C(=O)O` [Lisinopril (Zestril)]: the OMR-Perf in assay [1] is -0.439. For the same molecule, the Prob-Test in assay [2] was -0.579. In addition, the Prob-Naive in assay [3] is -0.618. This molecule also gave a Prob-Train in assay [4] of -0.561.

In assay [1], `CS(=O)(=O)Nc1ccc([N+](=O)[O-])cc1Oc1ccccc1` [Nimesulide] returned an OMR-Perf of -0.969. Also, the Prob-Test in assay [2] was 0.761. Further, the Prob-Naive in assay [3] is 0.13. Also, the Prob-Train in assay [4] was determined as 0.658.

In turn, `O=C1[C@H](CC[C@H](O)c2ccc(F)cc2)[C@H](c2ccc(O)cc2)N1c1ccc(F)cc1` [Ezetimibe] had an OMR-Perf in assay [1] of -0.0288. Further, the Prob-Test in assay [2] was 0.0512. This molecule also gave a Prob-Naive in assay [3] of 0.0155. This molecule registered a Prob-Train in assay [4] of -0.0785.

In the case of `Nc1nc(N)c2nc(-c3cccc(O)c3)cnc2n1`, the OMR-Perf in assay [1] worked out at 0.172. This molecule had a Prob-Test in assay [2] of -0.288. The same molecule displayed a Prob-Naive in assay [3] of -0.137. The molecule also showed a Prob-Train in assay [4] of -0.132.

`O=C(Nc1cccc(Nc2ncc(Br)c(NCCc3cnc[nH]3)n2)c1)N1CCCC1` displayed an OMR-Perf in assay [1] of 0.327. For the same molecule, the Prob-Test in assay [2] stood at 0.382. The molecule further came in with a Prob-Naive in assay [3] of 0.252. This molecule also had a Prob-Train in assay [4] of 0.412.

`CC(C)[C@H](C(=O)Nc1ccc(C(=O)NO)cc1)c1ccccc1`: in assay [1], the OMR-Perf turned out to be 0.403. Further, the Prob-Test in assay [2] amounted to 0.892. Moreover, in assay [3], the Prob-Naive came out at 0.146. This molecule also gave a Prob-Train in assay [4] of 0.621.

`COc1cc2c(cc1OC)C(=O)C(CC1CCN(Cc3ccccc3)CC1)C2.Cl` (centres undefined) [Donepezil HCl (Aricept)]: the OMR-Perf in assay [1] is -0.377. The molecule also registered a Prob-Test in assay [2] of 0.933. The Prob-Naive in assay [3] was -0.492. The same molecule registered a Prob-Train in assay [4] of 1.01.

Take `N[C@@H](C(=O)N[C@@H]1C(=O)N2C(C(=O)O)=C(Cl)CS[C@H]12)c1ccccc1` [Cefaclor (Ceclor)]: in assay [1], the OMR-Perf is -0.458. Further, the Prob-Test in assay [2] is -0.53. In assay [3], the Prob-Naive was 0.448. For the same molecule, in assay [4], the Prob-Train came to 0.646.

On to `C#C[C@@]1(O)CC[C@H]2[C@@H]3CCc4cc(OC)ccc4[C@@H]3CC[C@@]21C` [Mestranol], for which the OMR-Perf in assay [1] is -0.367. For the same molecule, the Prob-Test in assay [2] is -1.83. Moreover, in assay [3], the Prob-Naive was -0.813. In assay [4], this molecule yielded a Prob-Train of -2.59.

In assay [1], `O=S(=O)([O-])CCSSCCS(=O)(=O)[O-].[Na+].[Na+]` [Dimesna] had an OMR-Perf of -0.596. This molecule also showed a Prob-Test in assay [2] of 0.512. Besides, in assay [3], the Prob-Naive is -0.138. In assay [4], this molecule showed a Prob-Train of 0.00914.
